Data from the supplement of paper PMC6078165.

Tested on: MDAMB231
Assay: relative JC-1 red fluorescence (viability) vs pre-drug, coculture with fibroblast (fraction); higher = more viable cancer cells
Details: 100 µM
Protocol: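 JC-1 labelled TNBC cells cocultured 1:1 (1,500 cells each) with CellTrace Violet stained primary or stromal fibroblasts in 384-well plates in FluoroBrite medium, treated with one of 42 anticancer drugs at 0.1, 1, 10 or 100 uM. JC-1 red fluorescence (mitochondrial integrity in cancer cells only) was read by plate reader every 8 h for 72 h. Values are normalised to each well's pre-drug value. The stock of one drug was tenfold lower, so its dose labels may be too high.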

CC[C@]1(O)C[C@H]2CN(CCc3c([nH]c4ccccc34)[C@@](C(=O)OC)(c3cc4c(cc3OC)N(C=O)[C@H]3[C@@](O)(C(=O)OC)[C@H](OC(C)=O)[C@]5(CC)C=CCN6CC[C@]43[C@@H]65)C2)C1 [Vincristine]
relative JC-1 red fluorescence
Details	8 h	16 h	24 h	32 h	40 h	48 h	56 h	64 h	72 h
coculture fibroblast: C12385	0.755	0.78	0.693	0.764	0.735	0.734	0.708	0.707	0.698
coculture fibroblast: H6013	0.9286	0.907	0.88	0.892	0.868	0.849	0.8438	0.8282	0.803
coculture fibroblast: H6019	0.8003	0.793	0.774	0.802	0.795	0.806	0.8	0.818	0.804
coculture fibroblast: H6076	0.94	0.907	0.88	0.861	0.838	0.8	0.772	0.774	0.771
coculture fibroblast: H6231	0.904	0.902	0.791	0.8815	0.821	0.786	0.726	0.771	0.798
coculture fibroblast: HADF	0.92	0.9038	0.897	0.888	0.87	0.8083	0.8022	0.7826	0.731
coculture fibroblast: HCFa	0.9217	0.8839	0.878	0.868	0.818	0.772	0.742	0.724	0.694
coculture fibroblast: HCPF	0.9252	0.8607	0.837	0.824	0.787	0.754	0.7218	0.704	0.686
coculture fibroblast: HHSteC	0.938	0.9099	0.904	0.9104	0.8671	0.8522	0.8213	0.8088	0.782
coculture fibroblast: HMF	0.957	0.94029	0.924	0.918	0.883	0.86	0.82	0.798	0.772
coculture fibroblast: HPFa	0.963	0.962	0.93	0.896	0.863	0.827	0.787	0.779	0.739
coculture fibroblast: HUF	0.8861	0.836	0.866	0.794	0.758	0.742	0.707	0.711	0.703
coculture fibroblast: Hs5	0.9356	0.893	0.879	0.859	0.833	0.783	0.746	0.719	0.702
coculture fibroblast: Hs27A	0.933	0.917	0.889	0.885	0.835	0.761	0.786	0.768	0.733
coculture fibroblast: Hs343T	0.948	0.902	0.867	0.856	0.822	0.777	0.718	0.708	0.683
coculture fibroblast: WS1	0.7837	0.789	0.7068	0.733	0.722	0.708	0.679	0.667	0.648

The reference is the same well before dosing, and untreated signal decays as well.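 Fibroblast labels name human fibroblasts: mostly primary ones from tissues such as uterus (C12385, HUF), lung (H6013), bone (Hs27A), adrenal (HADF) and skin (WS1), plus mammary HMF and breast cancer-associated Hs343T. The cancer cells are basal-like or mesenchymal-like triple-negative breast cancer lines. The paper calls a changed response a hit when it shifts by more than 3x the replicate standard deviation. The tissue of the other fibroblasts is not given here.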
